The assay deals with T1, UGDH (uridine diphosphate glucose dehydrogenase), wild type, construct not stated for these experiments (human) (UniProt O60701).
T1 sequence (chain, O-GlcNAc on Ser350 (major site) on part of the protein): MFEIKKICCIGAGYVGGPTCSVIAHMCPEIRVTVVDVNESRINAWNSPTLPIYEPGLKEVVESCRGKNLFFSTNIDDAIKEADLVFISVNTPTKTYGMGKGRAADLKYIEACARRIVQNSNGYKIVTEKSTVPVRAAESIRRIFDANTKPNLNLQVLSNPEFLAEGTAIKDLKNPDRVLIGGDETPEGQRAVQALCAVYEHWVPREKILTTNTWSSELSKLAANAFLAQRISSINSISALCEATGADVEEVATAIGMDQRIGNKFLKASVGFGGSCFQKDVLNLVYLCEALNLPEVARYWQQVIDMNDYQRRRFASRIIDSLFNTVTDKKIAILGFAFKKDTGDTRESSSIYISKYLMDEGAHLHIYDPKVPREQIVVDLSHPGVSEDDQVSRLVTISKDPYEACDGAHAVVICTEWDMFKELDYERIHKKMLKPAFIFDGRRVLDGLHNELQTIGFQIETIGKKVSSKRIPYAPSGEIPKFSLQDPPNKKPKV
As to the kind of experiment: affinity purification with mass spectrometry; immunoprecipitation coupled with mass spectrometry (IP-MS) of WT and S350A UGDH; cells and tag not told.

The chains behind the UniProt entries cited, without tags or fusion partners.
UniProt Q14974: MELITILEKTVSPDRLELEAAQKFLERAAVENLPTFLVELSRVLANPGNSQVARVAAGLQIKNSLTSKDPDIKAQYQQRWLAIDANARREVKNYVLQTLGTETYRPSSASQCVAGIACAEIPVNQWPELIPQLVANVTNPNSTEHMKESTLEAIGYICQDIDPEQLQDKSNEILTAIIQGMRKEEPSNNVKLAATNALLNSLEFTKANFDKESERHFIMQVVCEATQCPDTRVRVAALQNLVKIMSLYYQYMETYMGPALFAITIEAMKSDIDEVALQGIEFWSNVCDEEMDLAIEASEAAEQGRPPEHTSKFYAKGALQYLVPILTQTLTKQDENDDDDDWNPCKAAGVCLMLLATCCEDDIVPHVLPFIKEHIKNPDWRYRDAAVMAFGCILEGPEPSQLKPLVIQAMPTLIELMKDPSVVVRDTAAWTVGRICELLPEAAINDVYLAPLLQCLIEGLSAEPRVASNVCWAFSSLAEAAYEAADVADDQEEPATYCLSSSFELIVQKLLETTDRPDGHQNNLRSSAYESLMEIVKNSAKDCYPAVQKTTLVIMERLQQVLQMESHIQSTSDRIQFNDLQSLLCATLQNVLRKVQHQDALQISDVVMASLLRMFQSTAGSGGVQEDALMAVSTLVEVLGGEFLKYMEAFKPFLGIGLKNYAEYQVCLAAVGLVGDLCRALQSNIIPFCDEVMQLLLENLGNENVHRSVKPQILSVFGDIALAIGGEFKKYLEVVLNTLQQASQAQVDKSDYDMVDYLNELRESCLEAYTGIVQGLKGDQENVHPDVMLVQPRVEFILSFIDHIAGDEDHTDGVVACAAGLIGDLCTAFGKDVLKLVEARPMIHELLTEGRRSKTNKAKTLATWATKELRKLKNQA
UniProt P42224: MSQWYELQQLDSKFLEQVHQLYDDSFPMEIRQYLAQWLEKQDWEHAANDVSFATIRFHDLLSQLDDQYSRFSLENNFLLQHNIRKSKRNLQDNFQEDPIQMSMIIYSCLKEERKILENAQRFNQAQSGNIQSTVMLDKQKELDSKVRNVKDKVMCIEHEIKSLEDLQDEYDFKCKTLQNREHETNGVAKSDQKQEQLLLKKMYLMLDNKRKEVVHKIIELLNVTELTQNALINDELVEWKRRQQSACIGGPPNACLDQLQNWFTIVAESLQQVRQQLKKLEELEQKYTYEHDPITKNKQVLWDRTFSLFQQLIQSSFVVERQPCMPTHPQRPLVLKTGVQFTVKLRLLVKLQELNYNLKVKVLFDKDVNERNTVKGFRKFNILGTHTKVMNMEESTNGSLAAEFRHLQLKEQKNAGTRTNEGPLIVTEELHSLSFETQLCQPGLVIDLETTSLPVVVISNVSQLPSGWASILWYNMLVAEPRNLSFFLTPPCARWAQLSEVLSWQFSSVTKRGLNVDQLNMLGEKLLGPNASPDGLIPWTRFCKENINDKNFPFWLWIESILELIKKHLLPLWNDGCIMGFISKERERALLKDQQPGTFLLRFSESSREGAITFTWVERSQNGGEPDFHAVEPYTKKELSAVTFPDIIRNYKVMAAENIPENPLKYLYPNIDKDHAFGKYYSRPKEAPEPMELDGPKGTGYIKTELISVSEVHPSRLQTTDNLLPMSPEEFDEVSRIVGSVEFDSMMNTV

Experimental findings from publication PMC13036090 are described below.

Results are given in words; binding and its absence hold for the method and conditions named. Binding seen in cells or lysates may run through a third protein. These calls come from enrichment with a bait or labelling near it, and not all partners need be listed. Where a sequence is shown, tags or fusion partners need not be part of it.

Regarding “KPNB1 found in the UGDH IP-MS (from UniProt Q14974 1-876)”, the binding entry is given as “binds”. Next, “STAT1 in the UGDH IP-MS (from UniProt P42224 1-750)”: “binds weakly”.
